{"sequences": {"note": "Sequences of proteins named here, by UniProt entry; tags and fusion partners are left off. Residues count along the entry.", "UniProt Q99497": "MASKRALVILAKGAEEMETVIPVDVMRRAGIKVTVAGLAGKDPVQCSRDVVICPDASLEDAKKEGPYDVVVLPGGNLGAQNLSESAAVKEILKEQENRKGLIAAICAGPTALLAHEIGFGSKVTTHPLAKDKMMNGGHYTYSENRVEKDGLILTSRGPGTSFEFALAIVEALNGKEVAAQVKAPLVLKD", "UniProt P0DMV8": "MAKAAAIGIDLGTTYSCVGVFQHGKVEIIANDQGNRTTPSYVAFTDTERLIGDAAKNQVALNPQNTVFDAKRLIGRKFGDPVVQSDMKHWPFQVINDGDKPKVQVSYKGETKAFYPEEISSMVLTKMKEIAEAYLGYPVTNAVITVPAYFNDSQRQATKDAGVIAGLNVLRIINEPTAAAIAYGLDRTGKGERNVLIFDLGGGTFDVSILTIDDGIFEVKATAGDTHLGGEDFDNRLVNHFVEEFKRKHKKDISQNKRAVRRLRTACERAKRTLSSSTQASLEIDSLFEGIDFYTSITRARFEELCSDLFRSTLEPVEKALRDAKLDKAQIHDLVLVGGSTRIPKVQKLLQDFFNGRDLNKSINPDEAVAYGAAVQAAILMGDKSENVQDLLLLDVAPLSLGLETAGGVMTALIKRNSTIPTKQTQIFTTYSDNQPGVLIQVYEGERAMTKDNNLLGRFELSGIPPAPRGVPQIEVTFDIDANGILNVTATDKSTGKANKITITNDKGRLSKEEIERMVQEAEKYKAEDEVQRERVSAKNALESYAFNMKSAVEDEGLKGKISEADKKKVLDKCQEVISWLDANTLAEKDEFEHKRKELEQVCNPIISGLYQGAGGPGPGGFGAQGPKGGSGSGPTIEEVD", "UniProt Q92598": "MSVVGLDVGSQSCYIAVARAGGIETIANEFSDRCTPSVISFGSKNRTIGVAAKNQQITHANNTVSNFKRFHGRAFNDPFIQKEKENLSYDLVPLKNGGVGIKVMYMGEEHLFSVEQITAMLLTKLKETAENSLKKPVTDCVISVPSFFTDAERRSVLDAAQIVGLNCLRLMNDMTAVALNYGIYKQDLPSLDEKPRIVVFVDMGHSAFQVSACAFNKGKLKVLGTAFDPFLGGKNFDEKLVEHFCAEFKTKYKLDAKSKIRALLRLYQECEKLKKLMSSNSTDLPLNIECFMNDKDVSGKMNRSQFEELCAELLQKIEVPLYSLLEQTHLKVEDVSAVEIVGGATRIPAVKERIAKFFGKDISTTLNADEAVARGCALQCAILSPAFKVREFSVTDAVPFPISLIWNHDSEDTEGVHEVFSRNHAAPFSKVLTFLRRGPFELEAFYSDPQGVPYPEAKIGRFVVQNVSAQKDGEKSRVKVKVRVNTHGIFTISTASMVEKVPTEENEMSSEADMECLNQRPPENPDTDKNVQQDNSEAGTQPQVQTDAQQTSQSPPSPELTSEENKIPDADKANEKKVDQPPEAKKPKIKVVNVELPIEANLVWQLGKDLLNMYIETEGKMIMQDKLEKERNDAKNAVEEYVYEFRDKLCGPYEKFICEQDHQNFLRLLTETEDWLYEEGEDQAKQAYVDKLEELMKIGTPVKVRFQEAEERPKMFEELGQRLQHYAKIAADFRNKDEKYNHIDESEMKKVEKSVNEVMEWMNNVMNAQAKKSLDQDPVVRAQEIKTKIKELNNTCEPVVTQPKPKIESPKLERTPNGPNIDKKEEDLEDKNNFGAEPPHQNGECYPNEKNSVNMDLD", "UniProt P38646, residues 47-679": "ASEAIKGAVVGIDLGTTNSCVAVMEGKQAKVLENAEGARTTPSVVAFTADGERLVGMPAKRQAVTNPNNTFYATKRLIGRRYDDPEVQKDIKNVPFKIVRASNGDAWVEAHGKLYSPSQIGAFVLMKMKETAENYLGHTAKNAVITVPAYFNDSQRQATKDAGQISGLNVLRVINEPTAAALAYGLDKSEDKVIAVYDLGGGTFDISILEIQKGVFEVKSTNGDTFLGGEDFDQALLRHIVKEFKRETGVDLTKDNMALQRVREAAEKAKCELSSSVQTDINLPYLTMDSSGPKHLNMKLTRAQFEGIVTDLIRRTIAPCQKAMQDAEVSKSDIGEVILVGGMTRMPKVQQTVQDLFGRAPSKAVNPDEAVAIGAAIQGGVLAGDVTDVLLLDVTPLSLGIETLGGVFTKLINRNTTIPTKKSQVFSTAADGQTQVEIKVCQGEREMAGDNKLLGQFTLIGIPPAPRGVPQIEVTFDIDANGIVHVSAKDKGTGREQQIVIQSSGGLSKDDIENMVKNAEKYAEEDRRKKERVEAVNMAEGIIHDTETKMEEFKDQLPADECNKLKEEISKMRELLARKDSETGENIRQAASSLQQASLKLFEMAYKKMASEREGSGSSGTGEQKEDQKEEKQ", "UniProt P37198": "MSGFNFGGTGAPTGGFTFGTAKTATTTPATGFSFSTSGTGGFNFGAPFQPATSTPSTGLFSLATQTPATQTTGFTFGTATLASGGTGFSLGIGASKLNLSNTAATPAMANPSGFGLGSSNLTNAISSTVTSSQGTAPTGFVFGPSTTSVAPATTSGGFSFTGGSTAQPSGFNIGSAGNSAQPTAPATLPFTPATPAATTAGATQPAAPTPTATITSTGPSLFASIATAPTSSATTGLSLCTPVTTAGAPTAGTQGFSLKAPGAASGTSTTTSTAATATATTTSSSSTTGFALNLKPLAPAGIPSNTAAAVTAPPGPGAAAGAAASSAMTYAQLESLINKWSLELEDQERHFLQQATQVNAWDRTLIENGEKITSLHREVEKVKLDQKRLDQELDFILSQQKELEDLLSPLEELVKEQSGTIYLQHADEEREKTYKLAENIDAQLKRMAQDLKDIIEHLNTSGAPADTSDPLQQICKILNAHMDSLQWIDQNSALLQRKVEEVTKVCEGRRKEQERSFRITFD"}, "source": "paper doi:10.1101/2024.10.17.618419", "experiment_in_all_cases": "affinity purification with mass spectrometry", "key": {"[1]": {"biological_target": "FLAG-tagged PARK7 (UniProt Q99497)"}, "[2]": {"biological_target": "T1, FLAG-tagged TRAP1 (tumor necrosis factor receptor-associated protein 1) (UniProt Q12931)", "T1 sequence": "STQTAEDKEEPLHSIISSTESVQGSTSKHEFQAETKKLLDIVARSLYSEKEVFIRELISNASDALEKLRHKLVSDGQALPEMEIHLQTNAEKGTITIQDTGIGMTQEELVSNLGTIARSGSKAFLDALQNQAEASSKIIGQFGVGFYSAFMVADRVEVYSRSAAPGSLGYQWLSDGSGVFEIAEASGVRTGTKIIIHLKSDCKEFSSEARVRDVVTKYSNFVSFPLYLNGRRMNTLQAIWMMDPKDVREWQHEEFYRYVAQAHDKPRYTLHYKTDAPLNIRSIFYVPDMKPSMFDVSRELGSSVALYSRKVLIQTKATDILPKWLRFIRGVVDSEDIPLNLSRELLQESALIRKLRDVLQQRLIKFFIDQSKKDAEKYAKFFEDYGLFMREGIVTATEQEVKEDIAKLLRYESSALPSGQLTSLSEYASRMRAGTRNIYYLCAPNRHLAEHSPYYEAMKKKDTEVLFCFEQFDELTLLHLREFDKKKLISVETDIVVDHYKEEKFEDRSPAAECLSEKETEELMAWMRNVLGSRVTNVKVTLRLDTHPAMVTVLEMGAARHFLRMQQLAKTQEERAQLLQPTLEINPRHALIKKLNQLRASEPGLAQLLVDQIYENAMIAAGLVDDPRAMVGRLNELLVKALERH"}, "[3]": {"biological_target": "FLAG-tagged PARK7 (UniProt Q99497)", "remark": "listed apart in the source"}, "[4]": {"biological_target": "FLAG-tagged MAP2K1 (MEK1) (UniProt Q02750)"}}, "note": "Read-outs that look alike come from different tables or passages of the source. No constants are given. Whether binding was seen depends on the method and setting. Binding seen in cells or lysates may run through a third protein. Here binding means that the protein was enriched with, or labelled near, the bait; the list need not be complete. For some assays here: No binding means not detected with the bait. For some assays here: Tags and fused reporters may be left off the sequences shown."}
{"molecule": "heat shock 70 kDa protein 1A (HSPA1A) (from UniProt P0DMV8 1-641)", "values": [{"measurement": "binding", "setting": "[1]", "result": "binds"}]}
{"molecule": "heat shock protein 105 kDa (HSPH1) (from UniProt Q92598 1-858)", "values": [{"measurement": "binding", "setting": "[1]", "result": "binds"}]}
{"molecule": "mitochondrial HSP70 – HSPA9 (GRP/mtHSP70/mortalin) (from UniProt P38646 47-679)", "values": [{"measurement": "binding", "setting": "[1]", "result": "binds"}]}
{"molecule": "nucleoporin 62 (NUP62) (from UniProt P37198 1-522)", "values": [{"measurement": "binding", "setting": "[1]", "result": "binds"}]}
{"molecule": "β-MPP (PMPCB) (protein, UniProt O75439 44-489) STQAATQVVLNVPETRVTCLESGLRVASEDSGLSTCTVGLWIDAGSRYENEKNNGTAHFLEHMAFKGTKKRSQLDLELEIENMGAHLNAYTSREQTVYYAKAFSKDLPRAVEILADIIQNSTLGEAEIERERGVILREMQEVETNLQEVVFDYLHATAYQNTALGRTILGPTENIKSISRKDLVDYITTHYKGPRIVLAAAGGVSHDELLDLAKFHFGDSLCTHKGEIPALPPCKFTGSEIRVRDDKMPLAHLAIAVEAVGWAHPDTICLMVANTLIGNWDRSFGGGMNLSSKLAQLTCHGNLCHSFQSFNTSYTDTGLWGLYMVCESSTVADMLHVVQKEWMRLCTSVTESEVARARNLLKTNMLLQLDGSTPICEDIGRQMLCYNRRIPIPELEARIDAVNAETIREVCTKYIYNRSPAIAAVGPIKQLPDFKQIRSNMCWLRD", "values": [{"measurement": "binding", "setting": "[2]", "result": "binds"}]}
{"molecule": "ferredoxin reductase (FXDR) (enzyme, UniProt P22570 33-491) STQEKTPQICVVGSGPAGFYTAQHLLKHPQAHVDIYEKQPVPFGLVRFGVAPDHPEVKNVINTFTQTAHSGRCAFWGNVEVGRDVTVPELREAYHAVVLSYGAEDHRALEIPGEELPGVCSARAFVGWYNGLPENQELEPDLSCDTAVILGQGNVALDVARILLTPPEHLERTDITKAALGVLRQSRVKTVWLVGRRGPLQVAFTIKELREMIQLPGARPILDPVDFLGLQDKIKEVPRPRKRLTELLLRTATEKPGPAEAARQASASRAWGLRFFRSPQQVLPSPDGRRAAGVRLAVTRLEGVDEATRAVPTGDMEDLPCGLVLSSIGYKSRPVDPSVPFDSKLGVIPNVEGRVMDVPGLYCSGWVKRGPTGVIATTMTDSFLTGQMLLQDLKAGLLPSGPRPGYAAIQALLSSRGVRPVSFSDWEKLDAEEVARGQGTGKPREKLVDPQEMLRLLGH", "values": [{"measurement": "binding", "setting": "[3]", "result": "binds"}]}
{"molecule": "CDC37 (protein, UniProt Q16543 1-378) MVDYSVWDHIEVSDDEDETHPNIDTASLFRWRHQARVERMEQFQKEKEELDRGCRECKRKVAECQRKLKELEVAEGGKAELERLQAEAQQLRKEERSWEQKLEEMRKKEKSMPWNVDTLSKDGFSKSMVNTKPEKTEEDSEEVREQKHKTFVEKYEKQIKHFGMLRRWDDSQKYLSDNVHLVCEETANYLVIWCIDLEVEEKCALMEQVAHQTIVMQFILELAKSLKVDPRACFRQFFTKIKTADRQYMEGFNDELEAFKERVRGRAKLRIEKAMKEYEEEERKKRLGPGGLDPVEVYESLPEELQKCFDVKDVQMLQDAISKMDPTDAKYHMQRCIDSGLWVPNSKASEAKEGEEAGPGDPLLEAVPKTGDEKDVSV", "values": [{"measurement": "binding", "setting": "[4]", "result": "binds"}]}
{"molecule": "ACAT1, acetyl-CoA acetyltransferase 1 (enzyme, UniProt P24752 34-427) VSKPTLKEVVIVSATRTPIGSFLGSLSLLPATKLGSIAIQGAIEKAGIPKEEVKEAYMGNVLQGGEGQAPTRQAVLGAGLPISTPCTTINKVCASGMKAIMMASQSLMCGHQDVMVAGGMESMSNVPYVMNRGSTPYGGVKLEDLIVKDGLTDVYNKIHMGSCAENTAKKLNIARNEQDAYAINSYTRSKAAWEAGKFGNEVIPVTVTVKGQPDVVVKEDEEYKRVDFSKVPKLKTVFQKENGTVTAANASTLNDGAAALVLMTADAAKRLNVTPLARIVAFADAAVEPIDFPIAPVYAASMVLKDVGLKKEDIAMWEVNEAFSLVVLANIKMLEIDPQKVNINGGAVSLGHPIGMSGARIVGHLTHALKQGEYGLASICNGGGGASAMLIQKL", "values": [{"measurement": "binding", "setting": "[2]", "result": "binds"}]}
{"molecule": "PMPCA (protein, UniProt Q10713 34-525) SSGGAYPNIPLSSPLPGVPKPVFATVDGQEKFETKVTTLDNGLRVASQNKFGQFCTVGILINSGSRYEAKYLSGIAHFLEKLAFSSTARFDSKDEILLTLEKHGGICDCQTSRDTTMYAVSADSKGLDTVVALLADVVLQPRLTDEEVEMTRMAVQFELEDLNLRPDPEPLLTEMIHEAAYRENTVGLHRFCPTENVAKINREVLHSYLRNYYTPDRMVLAGVGVEHEHLVDCARKYLLGVQPAWGSAEAVDIDRSVAQYTGGIAKLERDMSNVSLGPTPIPELTHIMVGLESCSFLEEDFIPFAVLNMMMGGGGSFSAGGPGKGMFSRLYLNVLNRHHWMYNATSYHHSYEDTGLLCIHASADPRQVREMVEIITKEFILMGGTVDTVELERAKTQLTSMLMMNLESRPVIFEDVGRQVLATRSRKLPHELCTLIRNVKPEDVKRVASKMLRGKPAVAALGDLTDLPTYEHIQTALSSKDGRLPRTYRLFR", "values": [{"measurement": "binding", "setting": "[2]", "result": "binds"}]}
{"molecule": "Myotubularin-related protein 14 (MTMR14) (protein, UniProt Q8NCE2 1-650) MAGARAAAAAASAGSSASSGNQPPQELGLGELLEEFSRTQYRAKDGSGTGGSKVERIEKRCLELFGRDYCFSVIPNTNGDICGHYPRHIVFLEYESSEKEKDTFESTVQVSKLQDLIHRSKMARCRGRFVCPVILFKGKHICRSATLAGWGELYGRSGYNYFFSGGADDAWADVEDVTEEDCALRSGDTHLFDKVRGYDIKLLRYLSVKYICDLMVENKKVKFGMNVTSSEKVDKAQRYADFTLLSIPYPGCEFFKEYKDRDYMAEGLIFNWKQDYVDAPLSIPDFLTHSLNIDWSQYQCWDLVQQTQNYLKLLLSLVNSDDDSGLLVHCISGWDRTPLFISLLRLSLWADGLIHTSLKPTEILYLTVAYDWFLFGHMLVDRLSKGEEIFFFCFNFLKHITSEEFSALKTQRRKSLPARDGGFTLEDICMLRRKDRGSTTSLGSDFSLVMESSPGATGSFTYEAVELVPAGAPTQAAWRKSHSSSPQSVLWNRPQPSEDRLPSQQGLAEARSSSSSSSNHSDNFFRMGSSPLEVPKPRSVDHPLPGSSLSTDYGSWQMVTGCGSIQERAVLHTDSSLPFSFPDELPNSCLLAALSDRETRLQEVRSAFLAAYSSTVGLRAVAPSPSGAIGGLLEQFARGVGLRSISSNAL", "values": [{"measurement": "binding", "setting": "[4]", "result": "no binding"}]}
{"molecule": "MOB kinase activator 2 (MOB2) (protein, UniProt Q70IA6 1-237) MDWLMGKSKAKPNGKKPAAEERKAYLEPEHTKARITDFQFKELVVLPREIDLNEWLASNTTTFFHHINLQYSTISEFCTGETCQTMAVCNTQYYWYDERGKKVKCTAPQYVDFVMSSVQKLVTDEDVFPTKYGREFPSSFESLVRKICRHLFHVLAHIYWAHFKETLALELHGHLNTLYVHFILFAREFNLLDPKETAIMDDLTEVLCSGAGGVHSGGSGDGAGSGGPGAQNHVKER", "values": [{"measurement": "binding", "setting": "[4]", "result": "no binding"}]}
